Values quoted from earlier work, collected in patent US7872041B2, “Use of rotigotine for treating and preventing Parkinson's plus syndrome” (priority 2004, dated 2011).

Conditions: Wenning et al, Lancet 2004; bromocriptine trial with six patients, lisuride controlled trial; cited from earlier work

## CCN(CC)C(=O)N[C@H]1C=C2c3cccc4[nH]cc(c34)C[C@H]2N(C)C1 [lisuride]
  Therapeutic efficacy in Parkinson's plus syndrome: no efficacy
